Source: article PMC7617989
No constants are given. Whether binding was seen depends on the method and setting. Binding seen in cells or lysates may run through a third protein. Some results given as binding are weak or reduced against the parent protein; the word gives no strength.

Protein sequences, listed by entry. Tags and fused reporters are not part of them. Residues count along the entry.
UniProt P56817, residues 46-501: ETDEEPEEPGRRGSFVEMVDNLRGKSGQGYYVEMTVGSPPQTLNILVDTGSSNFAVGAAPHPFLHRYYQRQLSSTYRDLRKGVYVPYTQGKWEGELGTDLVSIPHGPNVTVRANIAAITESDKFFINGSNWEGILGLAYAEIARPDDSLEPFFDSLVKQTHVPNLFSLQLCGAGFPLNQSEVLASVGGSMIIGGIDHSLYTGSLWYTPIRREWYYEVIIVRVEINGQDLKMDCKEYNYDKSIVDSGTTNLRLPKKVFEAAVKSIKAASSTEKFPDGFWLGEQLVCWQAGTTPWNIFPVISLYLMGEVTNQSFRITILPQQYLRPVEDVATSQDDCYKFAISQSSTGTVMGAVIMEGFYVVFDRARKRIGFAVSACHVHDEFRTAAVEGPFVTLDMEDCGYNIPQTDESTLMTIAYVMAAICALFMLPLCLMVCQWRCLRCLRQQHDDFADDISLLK

Molecular target: EGFR, endogenous in MH1002 cells (human (endogenous in MH1002)) (UniProt P00533)
Test: proximity ligation; MH1002 cells with endogenous BACE1 and EGFR, stained for BACE1 and EGFR

binding: binds
Substance: BACE1, endogenous in MH1002 cells (from UniProt P56817 46-501) (enzyme)
